Data source: PubChem BioAssay AID504791 (Drosophila RNAi Screening Center, 2011)
The deposit covers about 23,000 reagents; shown is an unselected part of those with a known target gene and a result. In the full data, 199 (0.86%) are marked active. 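Plate-scaled ratios behind the calls are not deposited; printed light signals are raw; many rows marked increased or decreased are still called inactive.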 No sequences are given here. The record does not give: the direction of the score.

- Aim: 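Factors in Argonaute-based small RNA production and activity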 (primary screen)
- Cell system: Drosophila S2-derived reporter cells
- Reagents: long dsRNA against Drosophila genes, about 150-250 ng dsRNA per well (siRNA assay); about 80-120 ng (miRNA assay)
- Timing: about 5 days (siRNA assay); about 4 days (miRNA assay)
- Treatment: copper sulfate induction of reporters: 25 µM (siRNA assay); 200 mM stated (miRNA assay), 1-2 days before reading
- Read-out: 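Dual luciferase assay: Renilla to firefly signal ratio in each well, scaled to the mean ratio of its plate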
- Units: stable assay Renilla, run 1 in luminescence; stable assay firefly, run 1 in luminescence
- Hit rule: 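a well was a first-pass pick when its plate-scaled ratio rose above 1.5 (siRNA assay) or 1.6 (miRNA assay), or dropped below 0.6; a gene counted only if two separate dsRNAs agreed on retest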

For nkd [DRSC11376], what does the deposit list?
stable assay Renilla, run 1: 7350; stable assay firefly, run 1: 4.79e5; Outcome: inactive

For CG4716 [DRSC06884], how do the results read?
stable assay Renilla, run 1: 8164; stable assay firefly, run 1: 5.13e5; Outcome: inactive

For Cdc37 [DRSC08648], what does the deposit list?
stable assay Renilla, run 1: 4291; stable assay firefly, run 1: 3.32e5; Outcome: inactive

With TfIIFalpha [DRSC12608], what does the deposit list?
stable assay Renilla, run 1: 5991; stable assay firefly, run 1: 3.54e5; Outcome: inactive

How did the screen score CG32369 [DRSC10042]?
stable assay Renilla, run 1: 5248; stable assay firefly, run 1: 2.50e5; Outcome: inactive

What did the screen give for CG32369 [DRSC10834]?
stable assay Renilla, run 1: 6798; stable assay firefly, run 1: 2.99e5; Outcome: inactive

Which result is listed for Sytbeta [DRSC10009]?
stable assay Renilla, run 1: 6556; stable assay firefly, run 1: 3.58e5; Outcome: inactive

For Sytbeta [DRSC10351], what was measured?
stable assay Renilla, run 1: 7687; stable assay firefly, run 1: 3.83e5; Outcome: inactive

For RpL5 [DRSC03801], what was measured?
stable siRNA reporter change: reporter ratio raised past the hit cutoff; stable assay Renilla, run 1: 6350; stable assay firefly, run 1: 2.30e5; Outcome: active

What is on record for Atg13 [DRSC16228]?
stable assay Renilla, run 1: 7822; stable assay firefly, run 1: 4.01e5; Outcome: inactive

How did the screen score CG18808 [DRSC08539]?
stable assay Renilla, run 1: 6260; stable assay firefly, run 1: 4.00e5; Outcome: inactive

For CG4455 [DRSC01983], how do the results read?
stable assay Renilla, run 1: 2.43e5; stable assay firefly, run 1: 1.31e6; Outcome: inactive

How did the screen score CG4455 [DRSC21684]?
stable assay Renilla, run 1: 8671; stable assay firefly, run 1: 4.10e5; Outcome: inactive

For mTerf5 [DRSC16209], what does the deposit list?
stable assay Renilla, run 1: 6950; stable assay firefly, run 1: 2.61e5; Outcome: inactive

Which result is listed for CG15071 [DRSC06504]?
stable assay Renilla, run 1: 6875; stable assay firefly, run 1: 3.26e5; Outcome: inactive

2 successive entries already listed:
Sytbeta [DRSC10009] → stable assay Renilla, run 1: 6556; stable assay firefly, run 1: 3.58e5; Outcome: inactive
Sytbeta [DRSC10351] → stable assay Renilla, run 1: 7687; stable assay firefly, run 1: 3.83e5; Outcome: inactive

Further records:
With CG8736 [DRSC07255], what does the deposit list?
stable assay Renilla, run 1: 6506; stable assay firefly, run 1: 3.20e5; Outcome: inactive

How did the screen score CG4854 [DRSC15663]?
stable assay Renilla, run 1: 7492; stable assay firefly, run 1: 4.46e5; Outcome: inactive

With Mgat4b [DRSC10256], how do the results read?
stable assay Renilla, run 1: 8242; stable assay firefly, run 1: 3.46e5; Outcome: inactive

What did the screen give for Mo25 [DRSC11224]?
stable assay Renilla, run 1: 8721; stable assay firefly, run 1: 5.15e5; Outcome: inactive

What is on record for CG8012 [DRSC10951]?
stable assay Renilla, run 1: 6590; stable assay firefly, run 1: 4.66e5; Outcome: inactive

With Eig71Ee [DRSC11152], what does the deposit list?
stable assay Renilla, run 1: 8591; stable assay firefly, run 1: 4.24e5; Outcome: inactive

For CG1635 [DRSC15131], what was measured?
stable assay Renilla, run 1: 7354; stable assay firefly, run 1: 4.80e5; Outcome: inactive

For CG12341 [DRSC06133], what was measured?
stable assay Renilla, run 1: 6383; stable assay firefly, run 1: 3.57e5; Outcome: inactive

With Cpr49Ac [DRSC07199], what does the deposit list?
stable assay Renilla, run 1: 7582; stable assay firefly, run 1: 3.93e5; Outcome: inactive

With Lpin [DRSC07241], what was measured?
miRNA reporter change: reporter ratio lowered past the hit cutoff; stable assay Renilla, run 1: 8842; stable assay firefly, run 1: 4.46e5; Outcome: inactive

For Mkk4 [DRSC16739], how do the results read?
stable assay Renilla, run 1: 5943; stable assay firefly, run 1: 3.66e5; Outcome: inactive

For CG12520 [DRSC09892], how do the results read?
stable assay Renilla, run 1: 5655; stable assay firefly, run 1: 3.20e5; Outcome: inactive

For Acadvl [DRSC07022], what does the deposit list?
stable assay Renilla, run 1: 8372; stable assay firefly, run 1: 3.13e5; Outcome: inactive
